Among all 340,000 compounds or so, about 4,500 (1.3%) were called active. Inconclusive means that the source gave no clear call. Such entries were picked first, then a sample of the others. Calls follow the shape of the dose curve; as a rule, active = well fitted inhibition curve with a large enough effect; inconclusive = small, poorly fitted or top-dose-only effect, or another doubt; inactive = no such curve, though single readings can be large or run the other way. Potencies beside an inconclusive call are fits to weak or partial responses and may not hold up.
Molecular target: DNA polymerase beta (Homo sapiens) (UniProt P06746)
Assay: qHTS Assay for Inhibitors of DNA Polymerase Beta
Details: Pol beta primer extension/strand displacement, fluorescence kinetic; activity change, negative = inhibition: at 114 µM (top of the series)
Method in brief: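 Human Pol beta at 10 nM; strand-displacement substrate 50 nM final. Compound exposure 15 min at room temperature before start, reaction 10 min at room temperature.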
% is scaled to controls: 0 for no effect and ±100 for the full control effect; potency is read from the fitted curve at half-maximal effect.

SMILES | Potency | activity change, negative = inhibition
Fc1ccc(-n2ncc3c(N4CCN(c5ccccc5F)CC4)ncnc32)cc1 | inactive | 
COc1ccc(CCn2c(=O)c3cccnc3n(CC(=O)Nc3c(C)cc(C)cc3C)c2=O)cc1OC | inactive | 
Cc1ccccc1NC(=O)C(=O)NNC(=O)COc1ccc2ccccc2c1 | inconclusive: 56.2 µM [inhibitor, partial curve] | 
O=c1cc(-c2ccccc2Cl)oc2ccc([N+](=O)[O-])c(O)c12 | inconclusive: 50.1 µM [inhibitor, partial curve] | 
Cc1ccc(-n2ncc(C#N)c2N)cc1 | inactive | 
O=C(NCc1ccco1)c1ccc(S(=O)(=O)N2CCOCC2)cc1 | active: 35.5 µM | 
O=C(c1ccccc1)N1CCN(CC2CC=CCC2)CC1 (centres undefined) | inconclusive: 89.1 µM [inhibitor, single point] | 
COC(=O)COc1ccc(S(=O)(=O)NCc2ccccn2)cc1 | inconclusive: 12.6 µM [inhibitor, full curve] | 
CCc1ccc(CNC(=O)c2ccc3nc(C4CCCCC4)oc3c2)nc1 | inconclusive: 28.2 µM [inhibitor, full curve, poor fit] | 
Cc1cccc(NC(=O)CCc2ccccc2)c1C | inconclusive: 3.98 µM [inhibitor, single point] | 
COc1ccc(-c2cc(=O)oc3c(C)c(O)ccc23)cc1 | inconclusive: 35.5 µM [inhibitor, partial curve] | 
CC(=O)Nc1ccc(NC(=O)Nc2ccc3c(c2)N(C)C(=O)CS3)cc1 | inconclusive: 35.5 µM [inhibitor, full curve] | 
CCOC(=O)c1ccc(N2C(=O)c3n[nH]c(-c4cccs4)c3C2c2cccc(OC)c2)cc1 (centres undefined) | inactive | 
COc1ccc(/C=N/NC(=O)c2[nH]c3ccc(Br)cc3c2-c2ccccc2)cc1 | inactive | 
CCCCNC(=S)N(C)/N=C/c1sc(N2CCCCC2)nc1-c1cccs1 | inconclusive: 79.4 µM [inhibitor, single point] | 
CC(=O)c1cnc2nc(C)nn2c1C | inconclusive: 0.1 µM [inhibitor, full curve, poor fit] | 
Cc1cccc2c(=O)c(C(=O)NCCc3ccccc3)c[nH]c12 | inconclusive: 1.26 µM [inhibitor, full curve] | 
CC(C)C(C(=O)NC1CCCC1)N(CC1CCCO1)C(=O)CNS(=O)(=O)c1ccccc1 (centres undefined) | inactive | 
NNC(=O)c1cc(C2CC2)nc2ccc(Br)cc12 | inconclusive: 0.631 µM [inhibitor, full curve, poor fit] | 
CCc1ccc(S(=O)(=O)NCc2nc3cccnc3n2Cc2ccccc2Cl)cc1 | inconclusive: 100 µM [inhibitor, single point] | 
CCc1ccc(/C=C2/SC(=S)N(CCC(=O)Nc3cccnc3)C2=O)cc1 | inconclusive: 22.4 µM [inhibitor, full curve, poor fit] | 
COCCNc1nc(-c2ccccc2)nc2c1oc1ccccc12 |  | inconclusive: -43.6% [inhibitor]
COc1ccccc1CNC(=O)Cc1ccc(OC)c(OC)c1 | inconclusive: 3.98 µM [inhibitor, single point] | 

SMILES | Potency | activity change, negative = inhibition
O=C(CN1CCN(C(=O)c2ccccc2)CC1)Nc1ccc(Br)cn1 | inconclusive: 44.7 µM [inhibitor, partial curve, poor fit] | 
CCS(=O)(=O)c1nc(S(=O)(=O)c2ccc(C)cc2)c(NC(C)c2ccccc2)s1 (centres undefined) | inconclusive: 89.1 µM [inhibitor, single point] | 
O=C(O)c1cc(S(=O)(=O)Nc2ccc3oc(=O)sc3c2)ccc1O | active: 50.1 µM | 
COc1ccc(-c2nnc(Nc3ccc(OC)c(C(N)=O)c3)c3ccccc23)cc1 |  | inconclusive: -35.4% [inhibitor]
O=C(O)c1ccccc1NS(=O)(=O)c1cccc(-n2sc3ccccc3c2=O)c1 | inconclusive: 89.1 µM [inhibitor, single point] | 
COc1ccc(N=C2S/C(=C\c3cc(C)n(C)c3C)C(=O)N2C)cc1 | inconclusive: 0.1 µM [inhibitor, full curve, poor fit] | 
O=C(COc1ccc([N+](=O)[O-])cc1)NNC(=O)Nc1ccc([N+](=O)[O-])cc1 | inconclusive: 0.708 µM [inhibitor, full curve, poor fit] | 
[N-]=[N+]=Nc1ccc(C(=O)CSC[C@H](NC(=O)CC[C@H](N)C(=O)O)C(=O)NCC(=O)O)cc1 | inconclusive: 31.6 µM [inhibitor, single point] | 
O=C(CCN1C(=O)/C(=C\C=C\c2ccccc2)SC1=S)Nc1ccc(C(=O)O)cc1 | active: 20 µM | 
Cc1ccc(C)c(Nc2nc3c(S(=O)(=O)c4ccc(Br)cc4)nnn3c3ccsc23)c1 | active: 17.8 µM | 
O=C(Nc1cccc(NC(=O)C2C3CC4OC(=O)C2C4C3)c1)c1ccccc1 (centres undefined) | inconclusive: 4.47 µM [inhibitor, single point] | 
CCC/C=C(\CCC)C(NC(=O)Cc1ccccc1)c1ccc(C(=O)OC)cc1 (centres undefined) | inconclusive: 31.6 µM [inhibitor, single point] | 
Cc1ccc(-c2ccnc3c(Cl)c(C)nn23)cc1 | inconclusive: 0.708 µM [inhibitor, full curve, poor fit] | 
COc1ccc(-c2nc3c(C#N)c[nH]n3c2NC2CCCC2)cc1 | inactive | 
COc1ccc(-c2nn(-c3ccccc3)cc2/C=C(/C#N)C(N)=O)cc1[N+](=O)[O-] | inconclusive: 89.1 µM [inhibitor, single point] | 
COc1ccc(N(C(=O)c2ccc(Cl)cc2)S(=O)(=O)c2ccc(C)cc2)cc1 | inactive | 
NC(=O)COC(=O)CSc1cccc2cccc(Cl)c12 | inconclusive: 1 µM [inhibitor, full curve, poor fit] | 
Cn1c(=O)c2c(-c3ccccc3Cl)n(Cc3ccc(Cl)cc3)cc2n(C)c1=O | inconclusive: 3.16 µM [inhibitor, full curve, poor fit] | 
CCN1/C(=C/c2ccc3cc(C)cc(C)c3[n+]2CC)Sc2cc(C)ccc21 | active: 50.1 µM | 
CCc1ccccc1NC(=O)CN1C(=O)COc2ccc(S(=O)(=O)Nc3ccccc3)cc21 | inactive | 
COc1cc(-c2nnc(SCC#CCO)o2)cc(OC)c1OC | inconclusive: 0.158 µM [inhibitor, full curve, poor fit] | 
COc1ccc2nc3ccccc3nc2c1 | inconclusive: 50.1 µM [inhibitor, partial curve] | 
COc1c(OC(C)=O)ccc(/C=C/c2ccc3cccc(OC)c3n2)c1[N+](=O)[O-] | inconclusive: 39.8 µM [inhibitor, single point] | 

Already shown: 5 of the compounds above.
SMILES | Potency | activity change, negative = inhibition
CCS(=O)(=O)c1nc(S(=O)(=O)c2ccc(C)cc2)c(NC(C)c2ccccc2)s1 (centres undefined) | inconclusive: 89.1 µM [inhibitor, single point] | 
O=C(O)c1cc(S(=O)(=O)Nc2ccc3oc(=O)sc3c2)ccc1O | active: 50.1 µM | 
COc1ccc(-c2nnc(Nc3ccc(OC)c(C(N)=O)c3)c3ccccc23)cc1 |  | inconclusive: -35.4% [inhibitor]
O=C(O)c1ccccc1NS(=O)(=O)c1cccc(-n2sc3ccccc3c2=O)c1 | inconclusive: 89.1 µM [inhibitor, single point] | 
COc1ccc(N=C2S/C(=C\c3cc(C)n(C)c3C)C(=O)N2C)cc1 | inconclusive: 0.1 µM [inhibitor, full curve, poor fit] | 

(continued)

SMILES | Potency | activity change, negative = inhibition
Cc1ccc(C(=O)N2CCc3cc(CNC(=O)c4ccnn4C)ccc32)cc1 | inactive | 
CCOc1ccc(NC(=O)CSc2nnc(Cn3c(=O)sc4ccccc43)n2C)cc1 | inconclusive: 100 µM [inhibitor, partial curve, poor fit] | 
O=C1/C(=C/c2ccc(Cl)cc2)SC(=S)N1CCC(=O)N1CCCCC1CCO (centres undefined) | inconclusive: 6.31 µM [inhibitor, partial curve] | 
Cn1c(=O)c2c(ncn2C)n(C)c1=O | inconclusive: 79.4 µM [inhibitor, single point] | 
Cc1cn(C)c(CC(=O)N2CCN(c3ccc(F)cc3)CC2)c1C(=O)O | inactive | 
Cc1nnn(-c2nonc2N)c1C(=O)N/N=C/c1ccccc1O | active: 44.7 µM | 
COc1ccc2[nH]c3c(c2c1)CCNC3(C)CCc1ccc(Cl)nc1 (centres undefined) | inactive | 
CN(C)c1ccc(CNC(=O)CCn2c(=O)c3cccn3c3ccc(F)cc32)cc1 | inactive | 
CN(c1ccccc1)c1ccc(/C=C(\CCC(=O)O)c2nc3ccccc3s2)cc1[N+](=O)[O-] | active: 8.91 µM | 
CC(C)c1nc2ccc(C(=O)NCCCN3CCN(c4ccc(F)cc4)CC3)cc2o1 | inconclusive: 100 µM [inhibitor, single point] | 
CCOC(=O)C1=C(CC)OC(N)=C(C#N)C1c1ccc(OC)c(OC)c1OC (centres undefined) | inconclusive: 89.1 µM [inhibitor, single point] | 
O=C(c1ccc(O)cc1)c1ccc(C(=O)O)c(C(=O)O)c1 | active: 35.5 µM | 
Cc1ccc2c(c1)CC(C)N2S(=O)(=O)c1nnc(NC(=O)CC(C)C)s1 (centres undefined) | inactive | 
NCCCC[C@H]1CNC(=S)N1CC1CCCCC1 | inconclusive: 39.8 µM [inhibitor, partial curve] | 
COc1ccc(OC)c(NC(=O)CCc2c(C)nc3c(c(C)nn3C(C)(C)C)c2C)c1 | inactive | 
Cn1cccc1-c1cc(C(=O)N/N=C/c2cc(Br)ccc2O)[nH]n1 | inconclusive: 15.8 µM [inhibitor, full curve] | 
NS(=O)(=O)c1ccc(NC(=O)COC(=O)COc2ccc(Br)cc2)cc1 | inconclusive: 89.1 µM [inhibitor, single point] | 
COC(=O)c1ccccc1NC(=O)Cn1nc(C(F)(F)F)c2c1CCCC2 | inconclusive: 10 µM [inhibitor, single point] | 
CC1CCN(c2ccc(C(=O)O)cc2N)CC1 | inconclusive: 50.1 µM [inhibitor, partial curve] | 
Cc1cc(C)c2nc(-c3ccccn3)cc(C(=O)NCc3ccco3)c2c1 | active: 39.8 µM | 
COCCOCC(O)CN1CCN(c2ccc(C)cc2)CC1 (centres undefined) | inconclusive: 8.91 µM [inhibitor, full curve] | 
Cc1cc2nc(C3CCN(CC4COc5ccccc5O4)CC3)[nH]c2cc1C (centres undefined) | inconclusive: 79.4 µM [inhibitor, single point] | 
Cc1cccc(OCc2nnc(-c3ccccc3)o2)c1 | inconclusive: 89.1 µM [inhibitor, single point] | 

Reference: PubChem BioAssay AID485314 (National Center for Advancing Translational Sciences (NCATS), 2010)
